Some of the results follow.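 The calls were made as follows: active = dose-dependent thermal stabilisation significant by F-test of dose-response against flat model at 10% FDR; inactive = not significant.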

The chains behind the UniProt entries cited, without tags or fusion partners. Where a name states a change or a piece, a line headed by the entry shows the natural chain unless it says otherwise.
UniProt O76003: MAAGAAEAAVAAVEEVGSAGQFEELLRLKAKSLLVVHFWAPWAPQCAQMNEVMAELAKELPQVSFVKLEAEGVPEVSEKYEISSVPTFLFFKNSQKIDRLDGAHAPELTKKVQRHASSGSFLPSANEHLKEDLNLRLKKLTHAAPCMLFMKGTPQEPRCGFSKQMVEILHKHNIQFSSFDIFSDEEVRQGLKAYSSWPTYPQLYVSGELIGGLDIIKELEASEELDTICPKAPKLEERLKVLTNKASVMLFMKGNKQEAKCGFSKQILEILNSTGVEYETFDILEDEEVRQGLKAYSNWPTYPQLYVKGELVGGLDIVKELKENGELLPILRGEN
UniProt P17174: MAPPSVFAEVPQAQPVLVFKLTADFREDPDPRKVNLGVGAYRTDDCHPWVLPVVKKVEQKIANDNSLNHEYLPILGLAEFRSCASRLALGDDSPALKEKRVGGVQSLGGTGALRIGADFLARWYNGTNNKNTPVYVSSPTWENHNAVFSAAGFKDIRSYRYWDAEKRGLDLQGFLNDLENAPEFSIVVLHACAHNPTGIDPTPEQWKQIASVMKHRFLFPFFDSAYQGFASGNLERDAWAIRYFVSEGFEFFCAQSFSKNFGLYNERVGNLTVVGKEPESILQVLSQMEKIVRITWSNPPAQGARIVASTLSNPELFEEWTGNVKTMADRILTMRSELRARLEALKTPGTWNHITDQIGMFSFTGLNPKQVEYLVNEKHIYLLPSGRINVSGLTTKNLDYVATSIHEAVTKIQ
UniProt P54198, whole entry: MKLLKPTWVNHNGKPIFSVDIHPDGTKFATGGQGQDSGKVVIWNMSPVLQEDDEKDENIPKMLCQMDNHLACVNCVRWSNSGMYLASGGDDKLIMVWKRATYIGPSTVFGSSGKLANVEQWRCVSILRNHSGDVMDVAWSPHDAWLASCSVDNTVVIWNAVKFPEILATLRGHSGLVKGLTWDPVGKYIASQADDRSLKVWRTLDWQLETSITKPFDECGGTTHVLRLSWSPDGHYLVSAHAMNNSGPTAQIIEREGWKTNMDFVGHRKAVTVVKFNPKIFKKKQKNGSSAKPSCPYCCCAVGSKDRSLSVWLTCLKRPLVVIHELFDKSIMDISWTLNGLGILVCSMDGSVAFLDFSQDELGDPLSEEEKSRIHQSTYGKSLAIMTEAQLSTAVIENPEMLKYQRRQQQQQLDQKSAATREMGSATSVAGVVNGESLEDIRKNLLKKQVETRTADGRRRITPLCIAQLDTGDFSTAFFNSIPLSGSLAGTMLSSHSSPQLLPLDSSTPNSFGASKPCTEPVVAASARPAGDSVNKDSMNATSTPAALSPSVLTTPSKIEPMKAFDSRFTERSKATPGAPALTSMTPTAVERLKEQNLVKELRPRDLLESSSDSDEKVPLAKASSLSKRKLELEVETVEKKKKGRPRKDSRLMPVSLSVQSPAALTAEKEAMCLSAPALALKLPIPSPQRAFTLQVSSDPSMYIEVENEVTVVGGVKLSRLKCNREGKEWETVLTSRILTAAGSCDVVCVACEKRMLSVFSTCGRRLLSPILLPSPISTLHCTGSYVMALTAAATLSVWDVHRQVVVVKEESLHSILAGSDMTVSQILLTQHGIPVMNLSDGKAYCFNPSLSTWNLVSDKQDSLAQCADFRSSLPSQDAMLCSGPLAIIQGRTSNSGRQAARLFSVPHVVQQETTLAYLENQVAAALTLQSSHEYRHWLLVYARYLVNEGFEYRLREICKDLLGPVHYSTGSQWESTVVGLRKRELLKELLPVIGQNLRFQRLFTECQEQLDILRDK
UniProt O14976: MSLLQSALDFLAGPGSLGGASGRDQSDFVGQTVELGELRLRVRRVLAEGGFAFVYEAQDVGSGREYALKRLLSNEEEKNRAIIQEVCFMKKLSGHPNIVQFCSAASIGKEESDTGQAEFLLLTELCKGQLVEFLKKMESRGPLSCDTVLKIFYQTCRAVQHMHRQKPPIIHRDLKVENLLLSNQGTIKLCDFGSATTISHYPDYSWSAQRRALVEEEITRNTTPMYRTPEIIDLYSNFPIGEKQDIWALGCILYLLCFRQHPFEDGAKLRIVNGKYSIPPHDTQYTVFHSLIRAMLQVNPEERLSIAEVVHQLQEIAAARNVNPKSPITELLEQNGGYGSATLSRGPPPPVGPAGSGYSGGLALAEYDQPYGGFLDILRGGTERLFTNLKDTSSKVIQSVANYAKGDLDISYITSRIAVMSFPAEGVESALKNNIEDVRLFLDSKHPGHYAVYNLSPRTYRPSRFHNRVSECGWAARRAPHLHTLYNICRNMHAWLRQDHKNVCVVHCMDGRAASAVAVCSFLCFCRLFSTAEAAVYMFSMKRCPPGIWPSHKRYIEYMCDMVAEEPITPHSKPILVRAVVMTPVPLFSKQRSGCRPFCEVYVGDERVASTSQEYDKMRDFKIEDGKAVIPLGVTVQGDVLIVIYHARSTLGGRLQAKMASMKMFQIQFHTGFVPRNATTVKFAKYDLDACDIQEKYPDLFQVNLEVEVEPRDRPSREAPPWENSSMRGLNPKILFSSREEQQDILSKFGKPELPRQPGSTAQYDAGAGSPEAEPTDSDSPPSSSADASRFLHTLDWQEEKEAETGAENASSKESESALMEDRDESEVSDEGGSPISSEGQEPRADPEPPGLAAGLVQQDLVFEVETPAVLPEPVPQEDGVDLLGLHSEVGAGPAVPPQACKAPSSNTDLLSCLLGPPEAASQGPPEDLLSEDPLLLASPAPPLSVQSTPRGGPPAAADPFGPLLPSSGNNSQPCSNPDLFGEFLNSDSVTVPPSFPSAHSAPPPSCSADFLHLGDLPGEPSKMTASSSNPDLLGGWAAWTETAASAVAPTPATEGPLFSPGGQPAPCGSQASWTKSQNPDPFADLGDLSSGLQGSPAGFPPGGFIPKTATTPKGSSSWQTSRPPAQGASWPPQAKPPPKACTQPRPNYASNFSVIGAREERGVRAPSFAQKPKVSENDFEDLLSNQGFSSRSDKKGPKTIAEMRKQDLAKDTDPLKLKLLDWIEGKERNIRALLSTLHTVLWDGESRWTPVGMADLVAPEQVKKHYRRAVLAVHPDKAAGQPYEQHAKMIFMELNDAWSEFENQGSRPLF
UniProt Q9BXW7: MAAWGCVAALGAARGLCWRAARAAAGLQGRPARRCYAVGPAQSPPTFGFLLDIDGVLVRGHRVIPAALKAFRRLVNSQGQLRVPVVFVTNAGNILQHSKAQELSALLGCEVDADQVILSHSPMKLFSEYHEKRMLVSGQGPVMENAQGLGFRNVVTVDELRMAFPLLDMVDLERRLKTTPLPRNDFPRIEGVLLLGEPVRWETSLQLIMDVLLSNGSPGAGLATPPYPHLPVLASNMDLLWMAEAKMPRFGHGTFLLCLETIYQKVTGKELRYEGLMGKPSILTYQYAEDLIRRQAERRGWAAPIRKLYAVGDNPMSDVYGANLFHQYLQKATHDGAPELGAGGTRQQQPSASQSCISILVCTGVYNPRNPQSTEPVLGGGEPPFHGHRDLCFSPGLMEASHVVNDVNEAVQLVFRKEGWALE
UniProt Q9UBI9: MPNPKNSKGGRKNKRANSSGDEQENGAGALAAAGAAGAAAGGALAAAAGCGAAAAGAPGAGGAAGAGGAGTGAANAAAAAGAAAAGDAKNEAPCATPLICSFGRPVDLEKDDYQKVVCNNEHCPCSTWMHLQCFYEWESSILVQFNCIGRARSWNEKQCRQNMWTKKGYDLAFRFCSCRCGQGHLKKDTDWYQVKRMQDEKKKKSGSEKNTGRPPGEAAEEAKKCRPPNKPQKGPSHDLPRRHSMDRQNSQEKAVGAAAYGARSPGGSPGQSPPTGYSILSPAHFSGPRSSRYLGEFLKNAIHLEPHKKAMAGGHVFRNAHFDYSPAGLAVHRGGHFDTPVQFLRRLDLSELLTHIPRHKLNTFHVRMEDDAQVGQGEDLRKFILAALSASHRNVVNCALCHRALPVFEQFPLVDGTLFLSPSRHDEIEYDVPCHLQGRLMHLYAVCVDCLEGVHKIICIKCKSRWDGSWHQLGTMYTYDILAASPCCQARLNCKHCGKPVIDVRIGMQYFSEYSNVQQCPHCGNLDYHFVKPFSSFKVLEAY
UniProt Q13588: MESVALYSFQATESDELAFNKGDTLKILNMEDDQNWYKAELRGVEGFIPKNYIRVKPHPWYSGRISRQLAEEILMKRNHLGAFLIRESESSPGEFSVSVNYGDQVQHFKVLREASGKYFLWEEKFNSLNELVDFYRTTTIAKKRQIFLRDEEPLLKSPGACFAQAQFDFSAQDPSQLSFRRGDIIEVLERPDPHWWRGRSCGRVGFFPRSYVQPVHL
UniProt P36969, whole entry: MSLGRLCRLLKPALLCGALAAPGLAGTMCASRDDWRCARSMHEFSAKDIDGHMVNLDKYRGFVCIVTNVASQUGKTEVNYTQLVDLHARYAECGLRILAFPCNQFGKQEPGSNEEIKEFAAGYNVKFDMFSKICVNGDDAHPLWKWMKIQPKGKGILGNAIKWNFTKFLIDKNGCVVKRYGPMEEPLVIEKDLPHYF
UniProt Q14376: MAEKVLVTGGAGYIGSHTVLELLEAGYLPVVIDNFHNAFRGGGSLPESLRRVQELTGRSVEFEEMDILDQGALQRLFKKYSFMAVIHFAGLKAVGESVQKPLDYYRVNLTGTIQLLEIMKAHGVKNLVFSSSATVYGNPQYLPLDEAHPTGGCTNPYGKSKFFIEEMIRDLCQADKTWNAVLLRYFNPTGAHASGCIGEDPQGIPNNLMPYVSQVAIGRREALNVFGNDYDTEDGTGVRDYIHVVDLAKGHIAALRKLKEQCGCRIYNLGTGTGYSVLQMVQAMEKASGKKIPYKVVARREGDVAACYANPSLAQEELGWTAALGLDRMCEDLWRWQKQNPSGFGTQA
UniProt Q9Y3E1: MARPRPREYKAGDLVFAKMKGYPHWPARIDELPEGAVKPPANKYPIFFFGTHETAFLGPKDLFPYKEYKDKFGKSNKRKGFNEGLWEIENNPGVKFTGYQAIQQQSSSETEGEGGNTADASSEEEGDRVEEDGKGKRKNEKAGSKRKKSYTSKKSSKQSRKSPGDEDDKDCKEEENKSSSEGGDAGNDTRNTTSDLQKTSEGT
UniProt P49590: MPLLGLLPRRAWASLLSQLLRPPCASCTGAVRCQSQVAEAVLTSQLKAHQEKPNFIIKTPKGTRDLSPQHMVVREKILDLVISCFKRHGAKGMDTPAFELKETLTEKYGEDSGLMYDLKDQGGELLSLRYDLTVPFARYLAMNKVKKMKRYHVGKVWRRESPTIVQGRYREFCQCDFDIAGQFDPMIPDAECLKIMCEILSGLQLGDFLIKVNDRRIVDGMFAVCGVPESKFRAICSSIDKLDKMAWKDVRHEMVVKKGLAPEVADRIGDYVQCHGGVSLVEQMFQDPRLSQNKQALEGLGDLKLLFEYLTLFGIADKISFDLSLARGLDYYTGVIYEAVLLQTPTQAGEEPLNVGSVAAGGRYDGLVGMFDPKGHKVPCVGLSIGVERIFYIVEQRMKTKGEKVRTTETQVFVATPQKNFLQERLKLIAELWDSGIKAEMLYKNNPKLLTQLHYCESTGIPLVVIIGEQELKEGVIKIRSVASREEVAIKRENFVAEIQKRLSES
UniProt Q9NYZ3: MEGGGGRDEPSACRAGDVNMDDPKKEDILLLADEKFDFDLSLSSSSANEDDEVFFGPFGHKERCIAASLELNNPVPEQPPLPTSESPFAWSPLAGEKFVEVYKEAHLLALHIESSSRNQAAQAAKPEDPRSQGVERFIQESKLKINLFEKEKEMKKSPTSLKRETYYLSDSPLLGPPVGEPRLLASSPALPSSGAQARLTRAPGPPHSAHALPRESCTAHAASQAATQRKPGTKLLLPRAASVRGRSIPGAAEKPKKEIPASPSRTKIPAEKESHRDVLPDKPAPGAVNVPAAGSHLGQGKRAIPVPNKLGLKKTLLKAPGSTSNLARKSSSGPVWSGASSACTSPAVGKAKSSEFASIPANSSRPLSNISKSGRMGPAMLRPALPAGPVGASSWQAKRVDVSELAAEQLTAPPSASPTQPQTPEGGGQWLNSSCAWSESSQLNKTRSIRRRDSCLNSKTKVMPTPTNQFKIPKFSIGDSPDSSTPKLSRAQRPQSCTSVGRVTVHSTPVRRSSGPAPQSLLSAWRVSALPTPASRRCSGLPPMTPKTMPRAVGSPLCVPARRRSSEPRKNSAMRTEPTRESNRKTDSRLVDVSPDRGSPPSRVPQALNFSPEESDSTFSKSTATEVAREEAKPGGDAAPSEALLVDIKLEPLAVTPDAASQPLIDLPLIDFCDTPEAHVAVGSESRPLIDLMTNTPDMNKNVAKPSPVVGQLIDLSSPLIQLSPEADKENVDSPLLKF
UniProt Q9H4A6: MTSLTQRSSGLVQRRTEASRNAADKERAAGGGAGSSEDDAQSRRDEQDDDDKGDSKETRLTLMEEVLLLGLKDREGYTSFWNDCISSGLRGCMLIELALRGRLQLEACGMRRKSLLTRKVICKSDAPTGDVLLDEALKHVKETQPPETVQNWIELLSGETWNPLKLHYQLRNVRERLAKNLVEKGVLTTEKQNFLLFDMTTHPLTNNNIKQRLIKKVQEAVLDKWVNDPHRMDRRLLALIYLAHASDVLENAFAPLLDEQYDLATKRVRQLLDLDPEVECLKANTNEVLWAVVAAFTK

Compound in this test: Nc1nc2c(ncn2[C@@H]2O[C@H](COP(=O)(O)OP(=O)(O)OP(=O)(O)O)[C@@H](O)[C@H]2O)c(=O)[nH]1
Nature of the test: dose-dependent thermal stabilisation call (2D-TPP, DLPTP, 10% FDR) (binary (1 = stabilised)); higher = stabilised by the compound. Particulars: system: Jurkat gel-filtered lysate; concentration range 1-500 µM. The protocol:
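2D thermal proteome profiling in gel-filtered Jurkat E6.1 lysate (2 mg/ml) treated with NaGTP (0, 1, 10, 100, 500 uM) for 10 min at room temperature, then heated 3 min at one of 12 temperatures (42-63.9 C). Soluble protein was quantified by TMT10 MS. The value is the DLPTP call of the paper: dose-dependent thermal stabilisation over all temperatures at 10% FDR (F-test of a dose-response against a flat model); one experiment, one call per tested protein.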
Take HMGCS1 (UniProt Q01581): the “dose-dependent thermal stabilisation call” value was inactive: 0.
For GLRX3 (UniProt O76003), the “dose-dependent thermal stabilisation call” value was inactive: 0.
For HMCES (UniProt Q96FZ2), the “dose-dependent thermal stabilisation call” value is inactive: 0.
Turning to HEMGN (UniProt Q9BXL5), the “dose-dependent thermal stabilisation call” value is inactive: 0.
Take GOT1 (UniProt P17174): the “dose-dependent thermal stabilisation call” value was inactive: 0.
In the case of HIRA (UniProt P54198), the “dose-dependent thermal stabilisation call” value is active: 1.
As to HAUS4 (UniProt Q9H6D7), the “dose-dependent thermal stabilisation call” value was inactive: 0.
For HIST1H1B (UniProt P16401), the “dose-dependent thermal stabilisation call” value is inactive: 0.
As for GAK (UniProt O14976), the “dose-dependent thermal stabilisation call” value was inactive: 0.
The same measure for HDHD5 (UniProt Q9BXW7): inactive: 0; for HK2 (UniProt P52789): active: 1; for HECA (UniProt Q9UBI9): inactive: 0.
Consider GRAP (UniProt Q13588), for which the “dose-dependent thermal stabilisation call” value was active: 1.
The same measure for HDDC3 (UniProt Q8N4P3): inactive: 0.
For GGH (UniProt Q92820), the “dose-dependent thermal stabilisation call” value is inactive: 0.
As for GABARAPL1 (UniProt Q9H0R8), the “dose-dependent thermal stabilisation call” value was inactive: 0.
Under GAR1 (UniProt Q9NY12) stands inactive: 0; under GSDMD (UniProt P57764), active: 1; under GPX4 (UniProt P36969), inactive: 0.
With HMGN1 (UniProt P05114), the “dose-dependent thermal stabilisation call” value was inactive: 0.
GOLGA1 (UniProt Q92805): the “dose-dependent thermal stabilisation call” value was inactive: 0.
For the target GTF3C4 (UniProt Q9UKN8), the “dose-dependent thermal stabilisation call” value was active: 1.
As to GALE (UniProt Q14376), the “dose-dependent thermal stabilisation call” value was active: 1.
Take GRPEL1 (UniProt Q9HAV7): the “dose-dependent thermal stabilisation call” value is inactive: 0.
Consider GSR (UniProt P00390), for which the “dose-dependent thermal stabilisation call” value is inactive: 0.
As for HMBOX1 (UniProt Q6NT76), the “dose-dependent thermal stabilisation call” value is inactive: 0.
The same measure for GAA (UniProt P10253): inactive: 0; for HDGFL3 (UniProt Q9Y3E1): inactive: 0; for HIST1H1D (UniProt P16402): inactive: 0.
Under HARS2 (UniProt P49590) stands active: 1; under GMEB1 (UniProt Q9Y692), inactive: 0.
In the case of GTF2A1 (UniProt P52655), the “dose-dependent thermal stabilisation call” value is inactive: 0.
Under GATAD2A (UniProt Q86YP4) stands inactive: 0; under GSPT1 (UniProt P15170), active: 1.
As to GGA3 (UniProt Q9NZ52), the “dose-dependent thermal stabilisation call” value was inactive: 0.
In the case of HDHD2 (UniProt Q9H0R4), the “dose-dependent thermal stabilisation call” value was inactive: 0.
As to GTSE1 (UniProt Q9NYZ3), the “dose-dependent thermal stabilisation call” value was inactive: 0.
Turning to GCLC (UniProt P48506), the “dose-dependent thermal stabilisation call” value is inactive: 0.
Take GOLPH3 (UniProt Q9H4A6): the “dose-dependent thermal stabilisation call” value was inactive: 0.
Under HAGHL (UniProt Q6PII5) stands inactive: 0.

These data come from the supplement of paper PMC7666118.
